From PubChem BioAssay AID504834 (National Center for Advancing Translational Sciences (NCATS), 2011)
About 22,000 (6.9%) of roughly 320,000 compounds were called active. The inconclusive results got no clear call from the source; some entries with a clear call stand among them for comparison. Calls come from the whole dose curve; as a rule, active = well fitted inhibition curve with a large enough effect; inconclusive = small, poorly fitted or top-dose-only effect, or another doubt; inactive = no such curve, though single readings can be large or run the other way. Potencies of inconclusive entries are doubtful fits and often do not repeat.

assay: Primary qHTS for delayed death inhibitors of the malarial parasite plastid, 96 hour incubation; conditions: P. falciparum luciferase reporter growth; series mostly up to 28.7 µM; activity change, negative = inhibition: at the top concentration
In short: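 Compounds incubated with erythrocytes infected by luciferase-expressing P. falciparum (2% hematocrit, 0.05% parasitemia final) for 96 hours, 37 C in 5% CO2. Growth inhibition scored as decreased luciferase luminescence.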
% is set by controls: 0 for no effect and ±100 for the full control effect; potency is the fitted concentration of half-maximal effect.

Q: With `COc1ccc(N(CC(=O)NCCc2ccccc2)C(=O)c2csnn2)cc1` as the compound, how does the Potency read?
A: inconclusive: 16.5 µM [inhibitor, partial curve, poor fit]

Q: For `COC(=O)c1ccc(OCC(=O)Nc2nn(-c3ccccc3)nc2C(N)=O)cc1`, which “activity change, negative = inhibition” value is on record?
A: inactive: 1.35%

Q: With `C=CCn1c(C)cc(C(=O)CSc2nnc3c(Cl)cc(Cl)cn23)c1C` as the compound, how does the Potency read?
A: inconclusive: 18.5 µM [inhibitor, partial curve, poor fit]

Q: Which Potency does the source give for `c1ccc(OCCOc2cccc3cccnc23)cc1` here?
A: active: 10.4 µM

Q: For `O=c1[nH]c(CSc2nc3ccccc3[nH]2)nc2c1cnn2-c1ccccc1`, which Potency is on record?
A: inconclusive: 11.7 µM [inhibitor, single point]

Q: With `Cn1c(=O)c2c(SCC(=O)NCC3CCCO3)nc(CC(C)(C)C)nc2n(C)c1=O` (stereo not drawn) as the compound, how does the Potency read?
A: inconclusive: 14.7 µM [inhibitor, partial curve, poor fit]

Q: Which Potency does the source give for `CN(CCNC(=O)Cn1c(=O)sc2ccccc21)Cc1ccccc1` here?
A: active: 4.65 µM

Q: Which “activity change, negative = inhibition” value does the source give for `Cc1cc(C(=O)N/N=C/c2ccc(C)o2)c2ccccc2n1` here?
A: inactive: -24.9%

Q: For `COc1ccc(/C(O)=C2/C(=O)C(=O)N(c3ccccn3)C2c2ccc(OC)c(OC)c2)cc1` (stereo not drawn), which “activity change, negative = inhibition” value is on record?
A: inactive: 2.03%

Q: For `CC1CCCCC1NC(=O)CCn1ccc2cc(S(=O)(=O)N3CCCC3)ccc21` (stereo not drawn), which Potency is on record?
A: inconclusive: 13.1 µM [inhibitor, single point]

Q: For `C=CCSc1nc(N)c2c3c(sc2n1)CN(C)CC3`, which Potency is on record?
A: active: 2.08 µM

Q: With `CCNc1nc(NCC)nc(OCCNS(=O)(=O)c2ccccc2)n1` as the compound, how does the “activity change, negative = inhibition” value read?
A: inactive: 10.1%

Q: For `Cn1nc(-c2ccc(N3CCOCC3)c(NS(=O)(=O)c3ccc(Cl)cc3)c2)c2ccccc2c1=O`, which Potency is on record?
A: inconclusive: 10.4 µM [inhibitor, single point]

Q: Which activity change, negative = inhibition does the source give for `CCCOc1ccc(-c2nc[nH]c2[N+](=O)[O-])cc1` here?
A: inactive: 59.7% [at 1.15 µM]

Q: With `COc1ccc(C2C(C#N)=C(N)Oc3c2c(C)nn3-c2ccccc2)cc1Cn1nc(C)c([N+](=O)[O-])c1C` (stereo not drawn) as the compound, how does the Potency read?
A: inconclusive: 18.5 µM [inhibitor, partial curve, poor fit]

Q: For `Cc1cc(C)nc(SCc2ccc(Cl)cc2)n1`, which Potency is on record?
A: inconclusive: 18.5 µM [inhibitor, single point]

Q: With `CN1C(=O)N(C)C(=O)C2(Cc3c(nc4ccccn4c3=O)N3CCc4ccccc4C32)C1=O` (stereo not drawn) as the compound, how does the Potency read?
A: inconclusive: 4.15 µM [inhibitor, partial curve]

Q: With `O=[N+]([O-])c1cccc(-c2nc3ccc([N+](=O)[O-])cc3[nH]2)c1` as the compound, how does the “activity change, negative = inhibition” value read?
A: inactive: -6.88%

Q: For `CCCCC(=O)O[C@]1(C(=O)CO)CCC2C3CCC4=CC(=O)CCC4(C)C3C(O)CC21C` (stereo partly drawn), which Potency is on record?
A: inconclusive: 12 µM [inhibitor, partial curve, poor fit]

Q: For `COc1ccc(NC(C)=O)cc1S(=O)(=O)N1CCN(C(=O)c2ccccc2F)CC1`, which Potency is on record?
A: inconclusive: 5.22 µM [inhibitor, partial curve]

Q: Which Potency does the source give for `CCOC(=O)c1c(C)[nH]c(C(=O)OC(C)C(=O)NC2CCCCC2C)c1C` (stereo not drawn) here?
A: inconclusive: 0.0037 µM [inhibitor, full curve, poor fit]

Q: For `CC(C)NC(=O)Nc1n[nH]c(Nc2ccc(Cl)cc2)n1`, which Potency is on record?
A: inconclusive: 3.7 µM [inhibitor, partial curve, poor fit]

Q: With `O=C(c1c[nH]c2ccc(F)cc2c1=O)N1CCCCCC1` as the compound, how does the Potency read?
A: inconclusive: 13.1 µM [inhibitor, single point]

Q: For `CCN(CC1CCCN(CCc2cccc(OC)c2)C1)C(=O)c1ccoc1` (stereo not drawn), which Potency is on record?
A: inconclusive: 11.7 µM [inhibitor, partial curve]

Q: With `CCCCCCCCn1c(=O)c(C(=O)OC)c(N)c2ccccc21` as the compound, how does the Potency read?
A: inconclusive: 16.5 µM [inhibitor, single point]

Q: For `O=C(O)CCC(=O)N(Cc1cccnc1)Cc1cccc(F)c1`, which Potency is on record?
A: inconclusive: 18.5 µM [inhibitor, single point]

Q: Which Potency does the source give for `Cc1ccc(N2C(=O)CC(=O)NC2=O)cc1Cl` here?
A: inconclusive: 0.465 µM [inhibitor, full curve, poor fit]

Q: With `CCc1nn(CCCC(=O)N2CCN(c3cccc(C)c3C)CC2)c(=O)c2cc3occc3n12` as the compound, how does the Potency read?
A: inconclusive: 7.38 µM [inhibitor, partial curve]

Q: For `O=C(Oc1ccccc1)c1ccc(-n2cnnn2)cc1`, which Potency is on record?
A: inconclusive: 10.4 µM [inhibitor, partial curve, poor fit]

Q: Which Potency does the source give for `CCCC(NC(=O)C(C)N1CCN(S(=O)(=O)c2ccccc2)CC1)c1ccccc1` (stereo not drawn) here?
A: active: 10.4 µM

Q: For `COc1ccc(NC(=O)C2CCN(S(=O)(=O)c3ccc(Br)s3)CC2)cc1OC`, which Potency is on record?
A: inconclusive: 0.165 µM [inhibitor, full curve, poor fit]

Q: With `Cc1ccn2c(=O)nc(SCC(=O)N3CCCc4ccccc43)nc2c1` as the compound, how does the Potency read?
A: inconclusive: 10.4 µM [inhibitor, single point]

Q: For `Cc1cc(Nc2ccccc2F)n2ncnc2n1`, which “activity change, negative = inhibition” value is on record?
A: inactive: 25.6%

Q: Which Potency does the source give for `O=C(CN(Cc1ccco1)C(=O)CNS(=O)(=O)c1ccc(F)cc1)NCc1ccc(F)cc1` here?
A: inconclusive: 10.4 µM [inhibitor, single point]

Q: Which Potency does the source give for `COc1ccc(OC)c(CN2CCN(Cc3cc(OC)c(OC)c(OC)c3)CC2)c1` here?
A: active: 13.1 µM

Q: Which “activity change, negative = inhibition” value does the source give for `Cc1ccc(NC(=O)NCc2ccccn2)cc1Cl` here?
A: inactive: 76.2%

Q: For `Cc1ccc(C(=O)NC(C)c2nnc(SCC(=O)NC3CCCC3)n2C)cc1` (stereo not drawn), which Potency is on record?
A: inconclusive: 11.7 µM [inhibitor, single point]

Q: With `CCN(CC(=O)NC1CCS(=O)(=O)C1)C(=O)C(c1ccccc1)c1ccccc1` (stereo not drawn) as the compound, how does the Potency read?
A: inconclusive: 11.7 µM [inhibitor, single point]

Q: Which “activity change, negative = inhibition” value does the source give for `CN(CCO)CCC(=O)NC1(C)CS(=O)(=O)CC1S(=O)(=O)O` (stereo not drawn) here?
A: inactive: 44.9%

Q: Which “activity change, negative = inhibition” value does the source give for `Cc1cccc(C)c1NC(=O)CCS(=O)(=O)c1cccc2nonc12` here?
A: inactive: 16.3%

Q: With `COc1ccc(C2=NN(C(=O)CCC(=O)O)C(c3ccc(Br)cc3)C2)cc1` (stereo not drawn) as the compound, how does the Potency read?
A: inconclusive: 18.5 µM [inhibitor, single point]

Q: With `COC(=O)c1ccc(-c2nc3ccc(C)cc3o2)cc1` as the compound, how does the Potency read?
A: inconclusive: 18.5 µM [inhibitor, partial curve, poor fit]

Q: Which Potency does the source give for `CC(C)CN(C(=O)c1cccc(Cl)c1)c1c(N)n(Cc2ccccc2)c(=O)[nH]c1=O` here?
A: inconclusive: 18.5 µM [inhibitor, single point]
